Source: PubChem BioAssay AID1259405 (NCATS, 2018)
Aim: 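Mouse-designed siRNAs used to find CHO productivity engineering targets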 (primary screen). Cells: Chinese hamster CHO-K1 ovary cells with stable secreted eGFP expression. Reagents: single siRNA against mouse genes, 0.8 pmol siRNA per well (2 µl of 400 nM stock). Timing: 3 days. Detection: 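Per-well intracellular GFP measured by laser scanning cytometry, plus viability from ATP luminescence, each relative to plate median of non-targeting control wells, in %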. Reading the numbers: GFP, % of control: higher = more GFP per well, higher productivity; viability (ATP), % of control: higher = more viable cells (more ATP). Hit rule: 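a knock-down is called active if GFP reaches 120% or more of non-targeting control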.
This is an unselected part of about 50,000 reagents. Over the whole deposit, about 4,000 (8%) are marked active. 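Mouse siRNA library applied to hamster cells; one well for each siRNA.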 The numbers tell different reagents against one gene apart.

target | reagent no. | GFP, % of control | viability (ATP), % of control | call
Pdp2 | 1 | 62.9 | 51.4 | inactive
Pdp2 | 2 | 77.8 | 63.3 | inactive
Pdp2 | 3 | 115 | 82.7 | inactive
A4galt | 1 | 128 | 90.5 | active
A4galt | 2 | 86.6 | 61.7 | inactive
A4galt | 3 | 92.3 | 32.2 | inactive
Lmbrd1 | 1 | 122 | 107 | active
Lmbrd1 | 2 | 67.1 | 53.8 | inactive
Lmbrd1 | 3 | 74.7 | 79.3 | inactive
Foxp4 | 1 | 65.3 | 90.2 | inactive
Foxp4 | 2 | 91.4 | 47.9 | inactive
Foxp4 | 3 | 79.6 | 99.8 | inactive
Or2i1 | 1 | 70.8 | 70.1 | inactive
Or2i1 | 2 | 81.7 | 92.6 | inactive
Or2i1 | 3 | 51.2 | 60.5 | inactive
Rpl17 | 1 | 43 | 38.3 | inactive
Rpl17 | 2 | 62.6 | 60.3 | inactive
Rpl17 | 3 | 36.1 | 47.2 | inactive
Rpl22 | 1 | 105 | 79.5 | inactive
Rpl22 | 2 | 21 | 20.8 | inactive
Rpl22 | 3 | 88.6 | 66.3 | inactive
Dnaja3 | 1 | 58 | 65 | inactive
Dnaja3 | 2 | 59.2 | 82.1 | inactive
Dnaja3 | 3 | 62.9 | 95.9 | inactive
Gata5 | 1 | 54.6 | 67.2 | inactive
Gata5 | 2 | 63.6 | 63.6 | inactive
U2surp | 1 | 125 | 113 | active
U2surp | 2 | 101 | 101 | inactive
U2surp | 3 | 99.9 | 86.4 | inactive
Rps17 | 1 | 87.9 | 91.3 | inactive
Rps17 | 2 | 46.2 | 50.6 | inactive
Rps17 | 3 | 55 | 44.7 | inactive
Lgals12 | 1 | 88.9 | 63.6 | inactive
Lgals12 | 2 | 114 | 68.3 | inactive
Lgals12 | 3 | 41 | 63.1 | inactive

7 entries from above, showing only “GFP, % of control”:
Rpl17 #1: 43
Rpl17 #2: 62.6
Rpl17 #3: 36.1
Rpl22 #1: 105
Rpl22 #2: 21
Rpl22 #3: 88.6
Dnaja3 #1: 58

More results follow:
target | reagent no. | GFP, % of control | viability (ATP), % of control | call
Bicdl2 | 1 | 58.9 | 50.2 | inactive
Bicdl2 | 2 | 50.5 | 80.2 | inactive
Bicdl2 | 3 | 112 | 112 | inactive
Col4a1 | 1 | 70.1 | 65.8 | inactive
Col4a1 | 2 | 164 | 68.8 | active
Col4a1 | 3 | 60.9 | 64.8 | inactive
Cd33 | 1 | 57.5 | 62.3 | inactive
Cd33 | 2 | 76.3 | 88.3 | inactive
Cd33 | 3 | 75 | 49.6 | inactive
Gm5115 | 1 | 59.2 | 74.6 | inactive
Gm5115 | 2 | 102 | 61.9 | inactive
Gm5115 | 3 | 95.6 | 90.4 | inactive
Uts2b | 1 | 46.1 | 49.2 | inactive
Uts2b | 2 | 106 | 84.7 | inactive
Uts2b | 3 | 99.4 | 91.7 | inactive
Llph | 1 | 116 | 115 | inactive
Llph | 2 | 64.8 | 69.4 | inactive
Llph | 3 | 98.4 | 82.1 | inactive
Xlr3a | 1 | 49.1 | 51.4 | inactive
Xlr3a | 2 | 76.1 | 92.5 | inactive
Xlr3a | 3 | 82.1 | 109 | inactive
Ccdc43 | 1 | 72.3 | 88.5 | inactive
Ccdc43 | 2 | 69.5 | 77.4 | inactive
Ccdc43 | 3 | 134 | 123 | active
Kcna1 | 1 | 117 | 64.3 | inactive
Kcna1 | 2 | 84.8 | 39.8 | inactive
Kcna1 | 3 | 78.4 | 84.1 | inactive
Spink4 | 1 | 67.4 | 89.8 | inactive
Spink4 | 2 | 67.8 | 81.3 | inactive
Spink4 | 3 | 98.8 | 110 | inactive
Uts2 | 1 | 44 | 56.1 | inactive
Uts2 | 2 | 82 | 88 | inactive
Uts2 | 3 | 84.8 | 64.6 | inactive
Pate4 | 1 | 91.5 | 112 | inactive
Pate4 | 2 | 110 | 119 | inactive
Pate4 | 3 | 177 | 121 | active
Pofut4 | 1 | 110 | 121 | inactive
Pofut4 | 2 | 105 | 121 | inactive
Pofut4 | 3 | 108 | 133 | inactive
Arhgef1 | 1 | 80.2 | 96.6 | inactive
Arhgef1 | 2 | 92.7 | 91.6 | inactive
Arhgef1 | 3 | 47.3 | 69.3 | inactive
Foxr2 | 1 | 56.9 | 58 | inactive
Foxr2 | 2 | 71.7 | 80.2 | inactive
Foxr2 | 3 | 98.9 | 64.1 | inactive
Hif3a | 1 | 40 | 61.6 | inactive
Hif3a | 2 | 68.2 | 77 | inactive
Hif3a | 3 | 56.4 | 73.8 | inactive
Scaf8 | 1 | 147 | 153 | active
Scaf8 | 2 | 104 | 99.4 | inactive
Scaf8 | 3 | 69.5 | 78.2 | inactive
